Assay results from US4720484A, “Peptide compounds having a nitrogenous polycyclic structure” (priority 1985, dated 1988).
Not every detail of the peptide structures is certain; ends, links or a residue may be inferred.

Test system: Klebsiella pneumoniae 7823
Assay: Increase in the resistance of animals to infection
Type: in vivo, female Swiss mice
Conditions: 60 μg per animal 48 hours before infection; inoculated i.p.

C[C@@H](O)[C@H](N)C(=O)N[C@@H](CCCCN)C(=O)N1C2CCC(CC2)[C@H]1C(=O)N[C@@H](CCCNC(=N)N)C(=O)O [Example 8, (S)Thr-(S)Lys-(S)ABO-(S)Arg-OH]
protection against death by infection (animals saved): all the animals
